Measured values from PubChem BioAssay AID2551 (National Center for Advancing Translational Sciences (NCATS), 2010).
In all, about 310,000 compounds went through this assay and about 17,000 (5.5%) were called active. The shares of active, inactive and inconclusive entries below differ from those in the screen. The call rests on the fitted dose curve; in most records, active means well fitted inhibition curve with a large enough effect; inconclusive means small, poorly fitted or top-dose-only effect, or effect the other way; inactive means no such curve, though single readings can be large or run the other way. A potency beside an inconclusive call is a rough fit, not a confirmed value.

Sequences of proteins named here, by UniProt entry; tags and fusion partners are left off. A change or cut given only in a name is not applied to a line headed by its entry.
UniProt P51450: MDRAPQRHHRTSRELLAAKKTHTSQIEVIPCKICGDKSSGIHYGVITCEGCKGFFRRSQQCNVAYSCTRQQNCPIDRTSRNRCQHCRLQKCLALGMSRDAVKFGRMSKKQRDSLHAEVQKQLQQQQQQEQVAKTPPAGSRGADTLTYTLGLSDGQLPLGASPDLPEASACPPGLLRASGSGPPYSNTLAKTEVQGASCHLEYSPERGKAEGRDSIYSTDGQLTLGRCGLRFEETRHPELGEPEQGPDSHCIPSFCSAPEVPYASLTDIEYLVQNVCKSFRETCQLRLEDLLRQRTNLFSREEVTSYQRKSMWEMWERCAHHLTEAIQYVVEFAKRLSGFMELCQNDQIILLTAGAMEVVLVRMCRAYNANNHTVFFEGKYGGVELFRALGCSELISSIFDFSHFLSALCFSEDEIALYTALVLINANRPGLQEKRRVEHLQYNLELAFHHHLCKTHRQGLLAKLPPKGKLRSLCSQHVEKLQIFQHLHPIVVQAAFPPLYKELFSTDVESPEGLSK

What follows are compounds tested against Nuclear receptor ROR-gamma (Mus musculus) (UniProt P51450) (assay: qHTS for inhibitors of ROR gamma transcriptional activity). Details: Drosophila S2 Gal4-RORgamma UAS-luciferase reporter, 20 h; activity change, negative = inhibition: at 53.6 µM (top of the series).
Outline: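 Stably transfected Drosophila Schneider cells are the test system, with ROR gamma fused to Gal4 and luciferase under UAS control; luminescence is read after 20 hr of 700 uM copper sulfate induction at ambient temperature.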
Further: nearly all actives have a fitted effect of over 60% in size.
On the % scale 0 is the no-effect control and ±100 the full control effect; potency means the concentration at half of the fitted maximal effect.

Potency, inconclusive:
N#C/C(=C\c1ccc(OCc2cccc(C(=O)O)c2)cc1)C(=O)NCc1ccco1 22.4 µM [inhibitor, single point], Cc1ccc(F)c([C@H]2C3C=CCC(c4ccccc4)C3C(=O)N2Cc2ccccc2)c1 (some centres undefined) 15.8 µM [activator, single point], O=C(c1cc(F)c(F)cc1Cl)N1CCN(c2ccc([N+](=O)[O-])c3ncccc23)CC1 11.2 µM [activator, partial curve], O=C(CCCc1nc2ccccc2s1)NCc1ccccc1F 12.6 µM [activator, single point], CC(C)c1nnc(NC(=O)c2cccs2)s1 15.8 µM [inhibitor, single point], S=c1sc2c(Cl)ncnc2n1-c1ccccc1 35.5 µM [inhibitor, single point], CC(C)(C)CC(C)(C)c1ccc(O)c(Cc2ccc(Cl)cc2Cl)c1 15.8 µM [inhibitor, single point], CC(C)(C)SCCNC(=O)/C=C/c1ccc([N+](=O)[O-])cc1 22.4 µM [activator, single point], N#Cc1nc(COc2ccccc2)oc1N1CCCCC1 10 µM [activator, partial curve], CCOc1ccc(CNC(=O)CN2C(=O)C(c3ccccc3)Oc3cccnc32)cc1 (centres undefined) 10 µM [activator, partial curve, poor fit], CC(C)OP(=O)(OC(C)C)C1(O)C(=O)Nc2ccc(Br)cc21 (centres undefined) 11.2 µM [inhibitor, single point], CCCNC(=O)NC(=O)COC(=O)c1ccc(S(=O)(=O)N(C)c2ccccc2OC)cc1 14.1 µM [inhibitor, single point], COc1ccc(NS(=O)(=O)c2ccc(OC)c(OC)c2)cc1OC 0.355 µM [activator, full curve, poor fit], CC(C)c1c(C(=O)N/N=C/c2cccc(OCc3ccccc3)c2)nnn1-c1nonc1N 22.4 µM [activator, partial curve], O=C1CC[C@H](OCc2ccccc2)CCN1[C@H](CSc1ccccc1)Cc1ccccc1 17.8 µM [activator, partial curve], CC(C)c1ccc(-c2noc(C3CCCN(S(C)(=O)=O)C3)n2)cc1 (centres undefined) 5.01 µM [activator, single point], Clc1ccc(OCCSc2nnnn2C2CCCCC2)cc1 10 µM [activator, partial curve], O=C1CCCC(O)=C1C=Nc1ccc2c(c1)oc1ccccc12 0.501 µM [activator, full curve], O=C(CNC(c1ccccc1)c1ccccc1)Nc1ccccc1-c1ccccc1 35.5 µM [inhibitor, single point], CCOc1ccc2[nH]cc(C(=O)NCc3ccccc3)c(=O)c2c1 12.6 µM [activator, partial curve], Cc1cc(C)n(-c2c(C)[nH]c3ccccc23)n1 12.6 µM [inhibitor, single point], O=[N+]([O-])c1cccc(S(=O)(=O)Nc2nc3ccccc3nc2Nc2cccc(S(=O)(=O)N3CCCCC3)c2)c1 3.16 µM [activator, partial curve], CCn1ncc(/C=N\NC(=O)c2ccc3c(c2)c(C)c(C)n3Cc2ccccc2)c1C 28.2 µM [inhibitor, single point]

Potency, active:
N#Cc1ccc(/C=N/NC(=S)Nc2ccc(S(=O)(=O)N3CCOCC3)cc2)cc1 1.78 µM, CCCCn1c(SCC(=O)Nc2cccc(OC)c2)nc2ccc(N3CCOCC3)cc2c1=O 5.01 µM, CCOC(=S)NC(=O)c1sc2ccccc2c1Cl 1.26 µM, O=C(Nc1nccs1)c1ccc(S(=O)(=O)NCC2CCCCC2)cc1 11.2 µM, CC1(C)OCC(CSC2=C(SCC3COC(C)(C)O3)C(=O)c3ncccc3C2=O)O1 (centres undefined) 11.2 µM, COc1ccc(C(=O)/C(=C\c2ccco2)N2C=CC=CC2=C(C#N)C#N)cc1 3.98 µM, Cc1cc(C)n(-c2nc3ccccc3c(=O)n2OCc2ccc(Cl)cc2)n1 10 µM, Cc1cccc2nc(CSc3nc4ccccc4o3)cn12 17.8 µM, CCOC(=O)N1CCN(C(=S)NC(=O)C23CC4CC(CC(C4)C2)C3)CC1 3.55 µM

Activity change, negative = inhibition, inactive:
COc1ccc(N2CC(C(=O)N[C@@H](C)C(=O)NC3CCCCC3)CC2=O)cc1 (some centres undefined) 2.98%, C=CCNC(=O)c1csc(-c2ccccc2)n1 12.6%, Cc1ccc(CSCC(N)C(=O)O)cc1 (centres undefined) 4.89%, c1csc(-c2ncc3ccccn23)c1 2.81%, O=C1CCN(C(=O)c2cccs2)c2ccccc21 -11.5%, COC(=O)c1sccc1NC(=O)Cn1nnc(-c2ccc(C)cc2)n1 0.762%, O=C(CN1CCCCCC1)N/N=C/c1cccc(Cl)c1Cl 0.258%, CN1CCN(c2ccc(NC(=O)C(C)(c3ccccc3)c3ccccc3)cc2)CC1 8.86%, Cc1ccc(S(=O)(=O)Cn2nnnc2C(C(C)C)N2CCC(O)CC2)cc1 (centres undefined) -15.3%, C/C=C/COC(=O)c1[nH]c2c(c1C)C(=O)CC(c1ccco1)C2 (centres undefined) 27.9%, Cc1cc(C)c(S(=O)(=O)N2CCCC(C(=O)NC3CC3)C2)c(C)c1 (centres undefined) -19.3%, CCN(CC(=O)NCc1ccc(F)cc1)C(=O)c1ccc(Cl)cc1 1.76%, O=C(CSc1nc2ccc(Cl)cc2[nH]1)c1c[nH]c2ccccc12 32.8%, O=C(O/N=C/c1ccc(Cl)cc1)C1CCCCC1 1.87%, CCOC(=O)c1sc(NC(=S)NC(=O)c2ccccc2Cl)c(C(=O)OCC)c1C -40.8%, CC(C)CC(NC(=O)C1CCC(C)CC1)C(=O)N1CCN(c2ccccn2)CC1 (centres undefined) 16.8%, Cc1ccc(/C=N/NC(=O)CSc2nnc(-c3ccc(Cl)cc3)n2-c2ccc(Cl)cc2)o1 -30.4%
